Source: PubChem BioAssay AID1469 (National Center for Advancing Translational Sciences (NCATS), 2008)
“And” between values parts separate entries of the source, which are not always exact repeats. Equal entries are not always repeated. The whole screen tested about 280,000 compounds, of which about 180 (0.064%) were called active. Inconclusive means that the source gave no clear call. Such entries were picked first, then a sample of the others. Calls come from the whole dose curve; as a rule, active = well fitted inhibition curve with a large enough effect; inconclusive = small, poorly fitted or top-dose-only effect, or effect the other way; inactive = flat fitted curve, though single readings scatter. Potencies beside an inconclusive call are fits to weak or partial responses and may not hold up.

Sequences of proteins named here, by UniProt entry; tags and fusion partners are left off. A change or cut given only in a name is not applied to a line headed by its entry.
UniProt P10828: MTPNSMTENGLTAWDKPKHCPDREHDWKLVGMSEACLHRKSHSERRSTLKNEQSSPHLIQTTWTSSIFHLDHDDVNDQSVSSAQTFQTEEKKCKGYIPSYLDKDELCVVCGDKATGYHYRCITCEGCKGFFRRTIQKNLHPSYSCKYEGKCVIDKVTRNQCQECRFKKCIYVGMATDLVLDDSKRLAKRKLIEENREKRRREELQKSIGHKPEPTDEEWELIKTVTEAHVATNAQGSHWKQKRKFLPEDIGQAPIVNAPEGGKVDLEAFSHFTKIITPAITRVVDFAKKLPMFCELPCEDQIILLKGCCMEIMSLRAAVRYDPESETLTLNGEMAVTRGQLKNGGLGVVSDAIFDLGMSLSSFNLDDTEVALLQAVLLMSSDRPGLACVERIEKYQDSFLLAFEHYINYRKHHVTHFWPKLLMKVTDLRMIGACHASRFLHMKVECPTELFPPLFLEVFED

Each compound was assayed against Thyroid hormone receptor beta (Homo sapiens) (UniProt P10828) (assay: qHTS for Inhibitors of the Interaction of Thyroid Hormone Receptor and Steroid Receptor Coregulator 2). Conditions: TRbeta-SRC2 peptide binding, fluorescence polarization, receptor liganded with 1 µM T3; series mostly up to 106 µM.
Text: NIH Molecular Libraries Probe Production Network [MLPCN]
NIH Chemical Genomics Center [NCGC]
Assay Provider: R. Kip Guy, St. Jude Children's Research Hospital
Thyroid receptor (TR) regulates many homeostatic processes including basal metabolism, cardiovascular function, body weight, and lipid trafficking. TR modulators are potential therapeutics for obesity and hyperlipidemias but current thyroid analogs have undesirable side effects, particularly cardiac stimulation. To identify inhibitors that specifically prevent the interaction of TR with the steroid receptor coregulator 2 (SRC2), a fluorescence polarization assay was screened. This assay detects interaction of the ligand-binding domain of human TRb with a Texas Red labeled SRC2 peptide, corresponding to a 20 amino acid region of the nuclear receptor interaction domain (Arnold et al., 2006). Small molecule inhibitors that block the interaction of TR and SRC2 are detected by a decrease in fluorescence polarization.
Arnold, L. A.; Estebanez-Perpina, E.; Togashi, M.; Shelat, A.; Ocasio, C. A.; McReynolds, A. C.; Nguyen, P.; Baxter, J. D.; Fletterick, R. J.; Webb, P.; Guy, R. K. A high-throughput screening method to identify small molecule inhibitors of thyroid hormone receptor coactivator binding. Sci STKE 2006, p 13.
NCGC Assay Protocol Summary:
For screening, 5 uL/well 0.6 uM TRb and 20 nM SRC2 Texas Red in protein buffer (20mM Tris hydrochloride, 100mM NaCl, 10% glycerol, 1mM EDTA, 0.01% NP-40, 1mM DTT, 1uM T3 and 5% DMSO) was dispensed into black solid 1536-well plates (Grenier) using a solenoid-based dispenser. Following transfer of 23 nL compound or DMSO vehicle by a pin tool, the plates were centrifuged 15 s at 1000 RPM and incubated 5 hr at ambient temperature. The plates were read by an Envision (Perkin Elmer) to detect fluorescence polarization of SRC2 Texas Red (555 nm excitation and 632 nm emission). Data were normalized to unbound (all components except TRb) and bound SRC2 Texas Red controls. In this assay, we provide % activity data for each concentration as well as potencies for the active compounds.
Keywords: NIH Roadmap, MLPCN, MLI, MLSMR, qHTS, NCGC, qHTS, thyroid hormone receptor, steroid receptor coactivator, fluorescence polarization
Note: nearly all actives have a fitted effect of over 50% in size.
Potency is the fitted concentration of half-maximal effect.
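Throughout, for activity change, negative = inhibition: plate controls were bound peptide for no effect and peptide without receptor for full effect.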

SMILES | Potency | activity change, negative = inhibition
NC(=O)c1ccc(-n2nnnc2SCC(=O)c2ccc(O)c(O)c2)cc1 | inconclusive: 70.8 µM [activator, partial curve] | –
CC(=O)C1(O)Cc2c(O)c3c(c(O)c2C(OC2CC(N)C(O)C(C)O2)C1)C(=O)c1c(O)cccc1C3=O (centres undefined) | active: 25.1 µM | –
CC(C)(C)c1ccc(C(=O)CC(Sc2ccc(Cl)cc2)C(=O)O)cc1 (centres undefined) | inconclusive: 44.7 µM [inhibitor, partial curve] | –
CC1(C)c2ccccc2N2CC(=O)N(CC(N)=O)C21C (centres undefined) | inconclusive: 17.8 µM [activator, full curve] | –
COc1ccc(C#CC2C=CC(OC(C)=O)C(COC(C)=O)O2)cc1 (centres undefined) | – | inactive: -2.94% [at 11.2 µM] and inactive: -3.69% [at 11.2 µM]
COc1cc(/C=C2\SC(=S)N(N(C)c3ccccc3)C2=O)ccc1O | inconclusive: 44.7 µM [activator, partial curve] | –
O=C(Oc1cccc2c(O)cccc12)c1ccccc1 | inactive | –
CCOc1ccc(N2C(=O)Nc3ccccc3C2(O)C(=O)NCc2ccc(OC)cc2)cc1 (centres undefined) | inactive | –
O=c1cc(C23CC4CC(CC(C4)C2)C3)[nH][nH]1 | active: 25.1 µM | –
Cc1cccc(OCC(=O)NNc2c3ccccc3nc3ccccc23)c1 | inactive | –
Cc1cc2cc(CNC(=O)Nc3cccc(Cl)c3)ccc2n1C | active: 44.7 µM | –
Cc1sc(NC(=S)NC(=O)c2ccco2)c(C#N)c1C | inconclusive: 15.8 µM [activator, single point] | –
Cc1[nH][nH]c(=O)c1C(c1c(C)[nH][nH]c1=O)c1cn(Cc2ccccc2Cl)c2ccccc12 | inconclusive: 35.5 µM [inhibitor, partial curve] | –
Cn1c2c(c(=O)n(C)c1=O)[C@@]1(C(=O)Nc3ccccc31)C(C#N)=C(N)O2 | inactive | –
CSc1nc(N)c2ncn([C@@H]3O[C@H](COP(=O)(O)OP(=O)(O)OP(=O)(O)O)[C@H](O)[C@H]3O)c2n1 | inactive | –
Cn1c(-c2ccc(=O)[nH]c2)nc2ccccc21 | inconclusive: 31.6 µM [inhibitor, full curve] | –
COC(=O)c1nn(-c2ccc(OC)cc2)c(=O)cc1NN | inconclusive: 25.1 µM [inhibitor, full curve] | –
Cc1ccccc1Nc1cc2ccccc2c(=O)[nH]1 | inconclusive: 25.1 µM [inhibitor, partial curve] | –
CCOC(=O)c1ccc(NC2=CC(=O)C(=O)c3ccccc32)cc1 | inconclusive: 28.2 µM [inhibitor, full curve, poor fit] | –
COc1ccccc1CNC(=O)C1CCN(S(=O)(=O)c2ccc3[nH]c(=O)ccc3c2)CC1 | inactive | –
C=CC1=C(C)C2=Cc3c(C=C)c(C)c4[n]3[Sn+2][n]3c(c(C)c(CCC(=O)O)c3=CC3=NC(=C4)C(C)=C3CCC(=O)O)=CC1=N2 | active: 12.6 µM | –
Cn1cc(/C=C2\SC(=S)N(NC(=O)c3ccccc3)C2=O)c2ccccc21 | active: 17.8 µM | –
O=C(/C=C/c1ccc(O)c(O)c1)O[C@H](Cc1ccc(O)c(O)c1)C(=O)O | inconclusive: 44.7 µM [activator, partial curve] | –

Entries of single compounds from above.
Cn1cc(/C=C2\SC(=S)N(NC(=O)c3ccccc3)C2=O)c2ccccc21 in the list: Potency: active: 17.8 µM
CC(C)(C)c1ccc(C(=O)CC(Sc2ccc(Cl)cc2)C(=O)O)cc1 (centres undefined) in the list: Potency: inconclusive: 44.7 µM [inhibitor, partial curve]

The results go on:

SMILES | Potency | activity change, negative = inhibition
COc1ccccc1-c1cc(C(=O)NCCc2ccccc2)no1 | inconclusive: 17.8 µM [inhibitor, partial curve] | –
CCOc1cccc(-c2cc(=O)[nH][nH]2)c1 | inconclusive: 31.6 µM [inhibitor, full curve, poor fit] | –
O=C(c1nc(-c2ccccc2)n(-c2ccccc2)n1)N1CCN(S(=O)(=O)c2ccccc2)CC1 | inconclusive: 112 µM [inhibitor, partial curve, poor fit] | –
CCN(C(=O)C1CCCN(c2ncnc3onc(-c4ccc(F)cc4)c23)C1)c1ccccc1 (centres undefined) | inconclusive: 5.62 µM [inhibitor, full curve] | –
O=C(O)C1=CC(=C(c2ccc(O)c(C(=O)O)c2)c2ccc(O)c(C(=O)O)c2)C=CC1=O | inconclusive: 10 µM [activator, full curve] | –
COc1ccc(-c2nnn(CC(=O)N3CCN(c4ccccc4OC)CC3)n2)cc1OC | inconclusive: 79.4 µM [activator, partial curve, poor fit] | –
O=C(O)/C=C/C(=O)Nc1ccc(S(=O)(=O)N2CCCC2)cc1 | inconclusive: 20 µM [inhibitor, partial curve] | –
O=c1[nH]c(=O)n(Cc2ccccc2)c2nc(-c3ccco3)cc(C(F)(F)F)c12 | inactive | –
O=C(O)/C=C/C(=O)Nc1ccc(SC(F)(F)C(F)(F)C(F)(F)F)cc1 | active: 31.6 µM | –
CC1=NOC(=O)/C1=C\c1ccc(-c2cc(Cl)ccc2Cl)o1 | inactive | –
C#CCNC(=O)C1=C[C@H](c2ccccc2)C[C@H](OCCCCO)O1 | inactive | –
COCCn1c(N)c(C(=O)NCc2cccs2)c2nc3ccccc3nc21 | inconclusive: 15.8 µM [inhibitor, full curve] | –
COc1ccccc1NCCC(=O)OCC(=O)NC1CC1 | inconclusive: 7.08 µM [activator, single point] | –
CCN(CC)CCOCCOC(=O)C1(c2ccccc2)CCCC1 | inconclusive: 50.1 µM [inhibitor, partial curve] | –
CCCN(CCC)CCNC(=O)Cn1cnc2sc(C)c(S(=O)(=O)N3CCN(c4ccccc4OC)CC3)c2c1=O | inactive | –
COc1ccc(C2=NN(c3ccccc3)C(=O)/C2=C\c2ccc(O)c(OC)c2)cc1 | inconclusive: 7.08 µM [inhibitor, full curve] | –
COc1cc(/C=C2/C(=O)N(c3ccc([N+](=O)[O-])cc3)N=C2N2CCOCC2)ccc1O | inconclusive: 8.91 µM [inhibitor, full curve, poor fit] | –
Cc1ccc(C)c2[nH]c(=O)c(CN(CC3CCCO3)S(=O)(=O)c3ccc4c(c3)OCCO4)cc12 (centres undefined) | inactive | –
CCOC(=O)c1cc(CC)sc1NC(=O)COc1ccccc1C | inconclusive: 0.708 µM [inhibitor, full curve] | –
COc1ccc(OCC(=O)OCCN2C(=O)c3ccccc3C2=O)cc1 | inactive | –
CC(C)(C)CC(C)(C)NC(=S)Nc1ccc2nc(-c3ccccn3)c(-c3ccccn3)nc2c1 | inactive | –
CCOc1[nH]n(-c2ccc(Cl)cc2)c(=O)c1C=Nc1ccc(O)cc1 | inconclusive: 14.1 µM [inhibitor, full curve] | –
CC(CC(=O)c1cccs1)CC(=O)c1cccs1 | inactive | –

SMILES | Potency | activity change, negative = inhibition
Cc1ccc(-c2nc(S(=O)(=O)c3ccc(F)cc3)c(SCC(=O)NCC3CCCO3)o2)cc1 (centres undefined) | inconclusive: 0.126 µM [inhibitor, full curve] | –
Nc1nc2c(s1)CCc1c-2cnn1-c1ccccc1 | inconclusive: 31.6 µM [inhibitor, partial curve] | –
CCC1Oc2ccccc2N(CC(=O)NCCCN2CCCCC2C)C1=O (centres undefined) | inconclusive: 79.4 µM [inhibitor, single point] | –
COc1ccccc1CN(Cc1cc2cc(C)ccc2[nH]c1=O)Cc1nnnn1CC1CCCO1 (centres undefined) | inconclusive: 79.4 µM [inhibitor, single point] | –
O=C(NCc1ccc(Cl)cc1)c1ccc(Cn2c(=O)c3cccn3c3cccnc32)cc1 | inconclusive: 70.8 µM [inhibitor, single point] | –
O=C(Nc1cc(Sc2ccccn2)cc([N+](=O)[O-])c1)c1ccc(Cl)cc1 | inactive | –
C/C(=N\Nc1ccc([N+](=O)[O-])cc1)c1ccc(C#N)cc1 | inconclusive: 17.8 µM [inhibitor, single point] | –
COc1ccc(OC)c(CNS(=O)(=O)c2ccc(-c3coc(C)n3)cc2)c1 | inactive | –
Oc1ccc2ccccc2c1N=Nc1ccc(F)cc1 | inconclusive: 70.8 µM [inhibitor, single point] | –
Cc1nn(-c2ccccc2)c2sc(C(=O)Nc3cccc(Cl)c3)cc12 | inactive | –
CCOC(=O)c1c(NC(=O)/C=C/c2ccc(OCC)cc2)sc(C(C)=O)c1C | inactive | –
NC(=O)C1CCN(C(=O)c2cc3n(n2)C(C(F)(F)F)CC(c2ccco2)N3)CC1 (centres undefined) | inconclusive: 79.4 µM [inhibitor, partial curve] | –
COc1ccc(N=C2NC(=O)S/C2=C\c2ccc(N(C)C)cc2)cc1 | active: 31.6 µM | –
Cc1ccc(N2C(=O)[C@@H]3[C@H](C2=O)C2c4ccccc4C=CN2[C@@H]3C(=O)c2ccco2)c(C)c1 (some centres undefined) | inconclusive: 50.1 µM [inhibitor, partial curve] | –
COc1ccc(Cn2c(-c3ccc(OC)cc3)nc3ccccc32)cc1 | inactive | –
COc1ccccc1N1CCN(S(=O)(=O)c2cccs2)CC1 | inactive | –
CC1N(C)c2cc(NC(=O)c3ccco3)ccc2C1(C)C (centres undefined) | inconclusive: 25.1 µM [activator, partial curve] | –
CCCCCCCC/C=C/CCCCCCCC(=O)NCCOP(=O)(O)O | inactive | –
COc1cccc(-c2cc(C(F)(F)F)n3ncc(C(=O)N4CCc5ccccc5C4)c3n2)c1 | inconclusive: 70.8 µM [inhibitor, single point] | –
O=C(NC(=S)Nc1ccccc1)c1csnn1 | inactive | –
COc1ccc(NC(=O)CCCN2C(=O)/C(=C\c3ccco3)SC2=S)cc1 | inconclusive: 50.1 µM [activator, partial curve] | –
CCCCN1C(=O)Cc2c1nc(N)c1c(N)nc(N(CCC)CCC)c(C#N)c21 | inconclusive: 31.6 µM [inhibitor, full curve, poor fit] | –
O=c1[nH]c(Nc2ccc(F)cc2)cc2ccccc12 | inconclusive: 22.4 µM [inhibitor, full curve] | –

Rewritten in CSV form: part of the list above.
SMILES,Potency,"activity change, negative = inhibition"
COc1ccc(Cn2c(-c3ccc(OC)cc3)nc3ccccc32)cc1,inactive,–
COc1ccccc1N1CCN(S(=O)(=O)c2cccs2)CC1,inactive,–
